Assay results taken from the supplement of paper PMC10849652.
The list shows a part of the results.

Amino acid sequences for entries named in this document (tags omitted). A change or cut given only in a name is not applied to a line headed by its entry.
UniProt Q96QT4: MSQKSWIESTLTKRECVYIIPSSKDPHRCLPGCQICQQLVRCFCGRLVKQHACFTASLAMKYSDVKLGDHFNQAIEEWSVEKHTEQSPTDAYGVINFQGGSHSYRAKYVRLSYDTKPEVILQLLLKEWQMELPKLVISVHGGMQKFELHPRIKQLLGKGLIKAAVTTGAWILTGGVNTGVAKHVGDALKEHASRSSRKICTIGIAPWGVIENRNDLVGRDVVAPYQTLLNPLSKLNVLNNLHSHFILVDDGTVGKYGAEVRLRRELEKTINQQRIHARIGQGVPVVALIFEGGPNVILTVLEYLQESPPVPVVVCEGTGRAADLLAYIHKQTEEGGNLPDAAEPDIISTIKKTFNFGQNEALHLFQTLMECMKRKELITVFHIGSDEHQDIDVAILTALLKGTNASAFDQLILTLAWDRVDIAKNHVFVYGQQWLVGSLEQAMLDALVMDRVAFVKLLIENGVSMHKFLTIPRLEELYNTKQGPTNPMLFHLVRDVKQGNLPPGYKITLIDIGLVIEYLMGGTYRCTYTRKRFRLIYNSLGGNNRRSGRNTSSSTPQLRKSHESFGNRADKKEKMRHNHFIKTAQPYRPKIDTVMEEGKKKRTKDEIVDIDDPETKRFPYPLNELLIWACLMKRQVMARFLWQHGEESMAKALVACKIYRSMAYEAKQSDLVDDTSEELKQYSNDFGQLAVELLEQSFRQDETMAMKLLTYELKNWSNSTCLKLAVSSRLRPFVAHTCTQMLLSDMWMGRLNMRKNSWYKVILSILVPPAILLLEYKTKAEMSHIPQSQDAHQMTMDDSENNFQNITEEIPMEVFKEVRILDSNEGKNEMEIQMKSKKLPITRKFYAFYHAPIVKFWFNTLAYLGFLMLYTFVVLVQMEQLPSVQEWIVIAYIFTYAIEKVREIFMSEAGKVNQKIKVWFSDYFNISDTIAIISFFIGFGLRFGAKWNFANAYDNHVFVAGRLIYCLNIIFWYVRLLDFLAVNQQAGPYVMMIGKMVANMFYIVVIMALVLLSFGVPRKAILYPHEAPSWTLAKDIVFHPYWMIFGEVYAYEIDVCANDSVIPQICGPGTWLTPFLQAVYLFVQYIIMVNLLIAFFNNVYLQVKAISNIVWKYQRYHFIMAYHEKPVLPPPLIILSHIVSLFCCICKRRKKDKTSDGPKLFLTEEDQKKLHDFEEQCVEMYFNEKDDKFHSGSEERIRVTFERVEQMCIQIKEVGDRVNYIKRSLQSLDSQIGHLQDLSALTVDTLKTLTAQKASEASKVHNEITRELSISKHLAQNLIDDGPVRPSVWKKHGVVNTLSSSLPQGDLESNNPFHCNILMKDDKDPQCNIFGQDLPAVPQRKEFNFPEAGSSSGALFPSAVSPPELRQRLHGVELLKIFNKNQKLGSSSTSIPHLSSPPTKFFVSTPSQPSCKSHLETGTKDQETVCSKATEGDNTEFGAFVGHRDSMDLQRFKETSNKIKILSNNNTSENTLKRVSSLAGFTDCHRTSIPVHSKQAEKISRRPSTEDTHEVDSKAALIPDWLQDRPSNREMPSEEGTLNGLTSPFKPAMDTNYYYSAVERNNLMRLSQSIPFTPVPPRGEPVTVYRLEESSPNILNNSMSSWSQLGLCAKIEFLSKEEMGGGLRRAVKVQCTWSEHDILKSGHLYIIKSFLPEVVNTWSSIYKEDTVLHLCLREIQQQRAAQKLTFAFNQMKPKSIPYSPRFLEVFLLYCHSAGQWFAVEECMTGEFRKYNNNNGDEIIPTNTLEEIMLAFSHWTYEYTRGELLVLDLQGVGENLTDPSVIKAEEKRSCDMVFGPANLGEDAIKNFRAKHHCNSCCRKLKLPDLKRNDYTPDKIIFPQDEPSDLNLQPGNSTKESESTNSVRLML
UniProt O60637: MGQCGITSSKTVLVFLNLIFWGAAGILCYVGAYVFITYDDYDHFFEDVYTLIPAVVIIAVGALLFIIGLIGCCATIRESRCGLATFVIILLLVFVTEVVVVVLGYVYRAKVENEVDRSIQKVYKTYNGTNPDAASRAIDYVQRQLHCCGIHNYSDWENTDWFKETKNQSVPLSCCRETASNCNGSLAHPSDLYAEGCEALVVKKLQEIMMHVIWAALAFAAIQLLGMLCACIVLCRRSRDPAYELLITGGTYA
UniProt Q8NG06: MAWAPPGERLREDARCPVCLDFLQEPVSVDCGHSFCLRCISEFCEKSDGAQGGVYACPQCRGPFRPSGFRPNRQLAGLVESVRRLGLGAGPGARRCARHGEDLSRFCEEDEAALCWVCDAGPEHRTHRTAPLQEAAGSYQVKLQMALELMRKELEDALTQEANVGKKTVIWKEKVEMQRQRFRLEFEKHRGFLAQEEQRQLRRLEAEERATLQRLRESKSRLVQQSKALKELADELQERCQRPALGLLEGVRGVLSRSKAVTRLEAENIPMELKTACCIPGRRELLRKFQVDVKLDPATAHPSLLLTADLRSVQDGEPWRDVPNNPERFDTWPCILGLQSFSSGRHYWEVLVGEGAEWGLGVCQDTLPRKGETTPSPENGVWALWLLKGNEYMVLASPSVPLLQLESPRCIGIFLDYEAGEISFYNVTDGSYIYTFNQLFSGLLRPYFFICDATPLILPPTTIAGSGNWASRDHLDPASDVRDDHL
UniProt O14717: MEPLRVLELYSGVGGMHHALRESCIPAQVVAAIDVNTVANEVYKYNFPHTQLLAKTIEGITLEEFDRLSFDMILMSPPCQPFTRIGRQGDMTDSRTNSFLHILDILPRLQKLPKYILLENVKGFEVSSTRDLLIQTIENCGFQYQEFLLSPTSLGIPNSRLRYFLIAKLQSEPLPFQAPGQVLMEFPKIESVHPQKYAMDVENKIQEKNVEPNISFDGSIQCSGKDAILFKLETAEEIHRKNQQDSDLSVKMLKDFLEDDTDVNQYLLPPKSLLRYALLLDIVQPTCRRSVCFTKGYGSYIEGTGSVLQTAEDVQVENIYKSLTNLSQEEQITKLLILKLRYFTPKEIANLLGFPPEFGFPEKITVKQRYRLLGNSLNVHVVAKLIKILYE
UniProt Q9NXH9: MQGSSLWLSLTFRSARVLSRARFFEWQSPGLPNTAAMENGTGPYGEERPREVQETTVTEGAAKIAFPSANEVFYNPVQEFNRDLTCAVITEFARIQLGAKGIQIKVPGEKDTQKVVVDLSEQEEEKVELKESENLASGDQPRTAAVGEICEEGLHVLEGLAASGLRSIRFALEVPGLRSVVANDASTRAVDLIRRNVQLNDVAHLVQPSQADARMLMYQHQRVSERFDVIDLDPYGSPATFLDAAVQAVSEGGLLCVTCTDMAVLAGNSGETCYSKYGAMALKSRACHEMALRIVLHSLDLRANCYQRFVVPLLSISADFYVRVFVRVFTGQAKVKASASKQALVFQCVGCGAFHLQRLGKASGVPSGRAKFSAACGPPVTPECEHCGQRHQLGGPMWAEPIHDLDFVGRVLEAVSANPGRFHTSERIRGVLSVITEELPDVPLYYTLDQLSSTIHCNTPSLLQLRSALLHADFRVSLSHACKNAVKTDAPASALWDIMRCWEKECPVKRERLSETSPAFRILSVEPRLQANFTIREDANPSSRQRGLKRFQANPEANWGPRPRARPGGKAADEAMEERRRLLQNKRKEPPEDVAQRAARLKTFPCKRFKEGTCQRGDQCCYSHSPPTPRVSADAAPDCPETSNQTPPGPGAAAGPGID
UniProt Q9UJK0: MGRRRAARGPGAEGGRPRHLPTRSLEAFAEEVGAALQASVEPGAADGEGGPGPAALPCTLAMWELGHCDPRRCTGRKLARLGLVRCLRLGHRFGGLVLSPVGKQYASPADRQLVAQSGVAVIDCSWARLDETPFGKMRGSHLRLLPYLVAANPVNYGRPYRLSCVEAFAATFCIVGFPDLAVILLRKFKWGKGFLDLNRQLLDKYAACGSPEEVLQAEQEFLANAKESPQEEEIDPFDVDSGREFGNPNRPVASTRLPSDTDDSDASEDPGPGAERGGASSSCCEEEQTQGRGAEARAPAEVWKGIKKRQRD
UniProt Q96AY4: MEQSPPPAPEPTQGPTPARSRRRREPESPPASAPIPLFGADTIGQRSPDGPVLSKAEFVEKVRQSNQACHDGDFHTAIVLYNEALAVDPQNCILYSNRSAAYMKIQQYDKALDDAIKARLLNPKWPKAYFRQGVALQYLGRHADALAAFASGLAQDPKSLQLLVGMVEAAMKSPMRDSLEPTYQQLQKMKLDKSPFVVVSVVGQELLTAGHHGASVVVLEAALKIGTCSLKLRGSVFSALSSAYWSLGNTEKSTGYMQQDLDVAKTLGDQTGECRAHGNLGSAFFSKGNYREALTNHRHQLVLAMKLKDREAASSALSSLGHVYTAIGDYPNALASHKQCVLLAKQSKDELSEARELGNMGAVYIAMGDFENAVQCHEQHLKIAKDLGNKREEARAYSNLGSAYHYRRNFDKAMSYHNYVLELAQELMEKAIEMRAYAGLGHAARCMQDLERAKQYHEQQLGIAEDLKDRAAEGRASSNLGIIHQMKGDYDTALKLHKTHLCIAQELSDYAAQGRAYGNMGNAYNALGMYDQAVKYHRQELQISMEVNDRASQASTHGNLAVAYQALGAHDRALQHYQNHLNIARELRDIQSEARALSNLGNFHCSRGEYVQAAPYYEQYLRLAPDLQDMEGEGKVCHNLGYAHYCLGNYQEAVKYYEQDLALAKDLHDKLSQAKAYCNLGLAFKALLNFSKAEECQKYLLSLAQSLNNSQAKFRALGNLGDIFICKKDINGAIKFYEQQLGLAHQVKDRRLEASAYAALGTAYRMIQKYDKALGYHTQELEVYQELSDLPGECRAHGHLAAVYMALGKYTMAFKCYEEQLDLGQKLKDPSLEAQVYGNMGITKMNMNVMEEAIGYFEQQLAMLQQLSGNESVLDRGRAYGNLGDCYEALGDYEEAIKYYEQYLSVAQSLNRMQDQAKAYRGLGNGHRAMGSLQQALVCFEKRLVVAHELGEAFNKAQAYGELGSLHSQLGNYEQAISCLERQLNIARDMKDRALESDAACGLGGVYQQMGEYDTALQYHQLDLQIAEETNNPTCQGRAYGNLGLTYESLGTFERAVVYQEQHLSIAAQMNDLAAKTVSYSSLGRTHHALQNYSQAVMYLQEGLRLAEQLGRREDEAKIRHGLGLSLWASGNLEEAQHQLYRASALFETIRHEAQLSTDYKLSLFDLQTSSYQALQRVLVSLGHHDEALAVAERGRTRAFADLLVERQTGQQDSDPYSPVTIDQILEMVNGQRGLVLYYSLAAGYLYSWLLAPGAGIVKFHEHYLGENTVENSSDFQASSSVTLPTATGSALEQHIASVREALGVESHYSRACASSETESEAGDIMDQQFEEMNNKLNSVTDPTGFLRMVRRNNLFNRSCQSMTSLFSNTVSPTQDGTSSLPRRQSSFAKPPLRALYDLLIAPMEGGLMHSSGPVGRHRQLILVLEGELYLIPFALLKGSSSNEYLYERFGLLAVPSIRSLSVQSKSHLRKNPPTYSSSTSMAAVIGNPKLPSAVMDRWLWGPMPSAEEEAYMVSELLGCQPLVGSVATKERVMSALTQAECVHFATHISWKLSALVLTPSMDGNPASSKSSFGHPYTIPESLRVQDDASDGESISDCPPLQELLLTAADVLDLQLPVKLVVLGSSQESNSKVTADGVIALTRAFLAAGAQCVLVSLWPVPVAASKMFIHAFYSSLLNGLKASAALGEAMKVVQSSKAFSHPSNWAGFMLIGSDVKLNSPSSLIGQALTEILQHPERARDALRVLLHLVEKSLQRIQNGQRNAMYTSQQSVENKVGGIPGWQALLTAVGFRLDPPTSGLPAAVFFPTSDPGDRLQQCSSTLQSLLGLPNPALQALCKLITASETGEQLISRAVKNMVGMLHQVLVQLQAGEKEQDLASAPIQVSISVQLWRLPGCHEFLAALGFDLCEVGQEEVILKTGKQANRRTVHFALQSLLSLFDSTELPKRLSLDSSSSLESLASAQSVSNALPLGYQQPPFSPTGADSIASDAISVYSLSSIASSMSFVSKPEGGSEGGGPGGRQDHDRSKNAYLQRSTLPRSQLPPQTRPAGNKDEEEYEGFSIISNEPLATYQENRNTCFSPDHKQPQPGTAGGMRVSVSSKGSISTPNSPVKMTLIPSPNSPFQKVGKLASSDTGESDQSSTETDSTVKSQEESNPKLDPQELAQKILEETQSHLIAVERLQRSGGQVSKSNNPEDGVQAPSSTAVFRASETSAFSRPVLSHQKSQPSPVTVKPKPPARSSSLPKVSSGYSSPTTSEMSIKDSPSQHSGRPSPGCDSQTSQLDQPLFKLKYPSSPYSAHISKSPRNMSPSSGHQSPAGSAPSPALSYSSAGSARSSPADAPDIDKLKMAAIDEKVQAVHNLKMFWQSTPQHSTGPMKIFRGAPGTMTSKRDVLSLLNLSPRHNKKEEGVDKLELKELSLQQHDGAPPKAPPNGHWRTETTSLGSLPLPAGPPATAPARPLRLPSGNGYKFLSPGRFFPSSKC

Legend:
Experiment in all cases: log2 fold change, soluble protein after heating vs DMSO (PISA); higher = thermal stabilisation; K562 lysate, 10 uM; active = over 0.2 and 3.5 SD of the protein, either way, in both replicates (recomputed)
vemurafenib = compound: CCCS(=O)(=O)Nc1ccc(F)c(C(=O)c2c[nH]c3ncc(-c4ccc(Cl)cc4)cc23)c1F [vemurafenib]
Summary of the method: (§1)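 To prepare the extract, K562 pellets were dounce-homogenised in PBS pH 7.4 with 1 mM MgCl2, giving crude material at 1 mg/mL protein. This was treated with 10 μM compound for 30 min, then heated in aliquots for 3 min over 48°C-58°C before pooling and addition of NP-40 to 0.5% at 4°C. Centrifugation at 21,000xg for 90 min left soluble protein in the supernatant, which TMTpro 16plex LC-MS/MS quantified with equalised channel sums. Results are log-two fold changes in thermal stability compared with solvent controls, from duplicates.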

[1] = compound: CCCS(=O)(=O)Nc1ccc(F)c(C(=O)c2c[nH]c3ncc(Cl)cc23)c1F
Summary of the method: as §1

barasertib = compound: CCN(CCCOc1ccc2c(Nc3cc(CC(=O)Nc4cccc(F)c4)[nH]n3)ncnc2c1)CCOP(=O)(O)O [barasertib]
Summary of the method: as §1

volasertib = compound: CC[C@@H]1C(=O)N(C)c2cnc(Nc3ccc(C(=O)N[C@H]4CC[C@H](N5CCN(CC6CC6)CC5)CC4)cc3OC)nc2N1C(C)C [volasertib]
Summary of the method: as §1

[2] = compound: CCn1c(C(=O)N(C2CC2)C2CC2)cc2c3c(ncn3C)c(Nc3cc(C)n(C)n3)nc21
Summary of the method: as §1

[3] = compound: CCn1cc(-c2ccnc3[nH]c(-c4cccc(CN(C)C)c4)cc23)c(-c2ccc(NC(=O)N(C)C)cc2)n1
Summary of the method: as §1

[4] = compound: CN1CCC(CNc2ccc3ncc(-c4cccc(OC(F)(F)F)c4)n3n2)CC1
Summary of the method: as §1

saracatinib = compound: CN1CCN(CCOc2cc(OC3CCOCC3)c3c(Nc4c(Cl)ccc5c4OCO5)ncnc3c2)CC1 [saracatinib]
Summary of the method: as §1

alvocidib = compound: CN1CC[C@H](c2c(O)cc(O)c3c(=O)cc(-c4ccccc4Cl)oc23)[C@H](O)C1 [alvocidib]
Summary of the method: as §1

Tubastatin A = compound: CN1CCc2c(c3ccccc3n2Cc2ccc(C(=O)NO)cc2)C1 [Tubastatin A]
Summary of the method: as §1

[5] = compound: CNC(=O)C1=CC=CC=C1NC2=NC(=NC=C2Cl)NC3=C(C=C(C=C3)N4CCOCC4)OC
Summary of the method: as §1

defactinib = compound: CNC(=O)c1ccc(Nc2ncc(C(F)(F)F)c(NCc3nccnc3N(C)S(C)(=O)=O)n2)cc1 [defactinib]
Summary of the method: as §1

[6] = compound: CNc1nc(-c2ccc3c(N)n[nH]c3c2)cc(N2C[C@@H](C(=O)NC3CCCCC3)CC[C@H]2C)n1
Summary of the method: as §1

alisertib = compound: COc1cc(Nc2ncc3c(n2)-c2ccc(Cl)cc2C(c2c(F)cccc2OC)=NC3)ccc1C(=O)O [alisertib]
Summary of the method: as §1

[7] = compound: COc1cc2nc(-c3cc(F)ccc3O)nc(N[C@@H]3CNC[C@H]3C(C)(C)O)c2cc1OC
Summary of the method: as §1

gefitinib = compound: COc1cc2ncnc(Nc3ccc(F)c(Cl)c3)c2cc1OCCCN1CCOCC1 [gefitinib]
Summary of the method: as §1

[8] = compound: CC[C@@H]1C(=O)N(C)c2cnc(Nc3ccc(C(=O)NC4CCN(C)CC4)cc3OC)nc2N1C1CCCC1
Summary of the method: as §1

sotrastaurin = compound: CN1CCN(c2nc(C3=C(c4c[nH]c5ccccc45)C(=O)NC3=O)c3ccccc3n2)CC1 [sotrastaurin]
Summary of the method: as §1

encorafenib = compound: COC(=O)N[C@@H](C)CNc1nccc(-c2cn(C(C)C)nc2-c2cc(Cl)cc(NS(C)(=O)=O)c2F)n1 [encorafenib]
Summary of the method: as §1

[9] = compound: COC(=O)[C@H](CCSC)NC(=O)C1=C(C=C(C=C1)NC[C@H](CS)N)C2=CC=CC=C2
Summary of the method: as §1

Measured: log2 fold change

TSTD2 (UniProt Q5T7W7)
inactive: vemurafenib -0.257 | [1] -0.029 | barasertib 0.164 | volasertib -0.046 | [2] -0.068 | [3] 0.054 | [4] -0.009 | saracatinib -0.048 | alvocidib 0.064 | Tubastatin A -0.106 | [5] -0.053 | defactinib 0.038 | [6] 0.086 | alisertib 0.036 | [7] -0.01 | gefitinib -0.043

TRPM7 (UniProt Q96QT4)
inactive: vemurafenib 0.035 | [1] 0.074 | [8] 0.028 | volasertib -0.028 | [2] 0.081 | [3] 0.152 | [4] -0.145 | saracatinib 0.091 | sotrastaurin 0.03 | alvocidib 0.055 | Tubastatin A -0.001 | defactinib -0.01 | [6] -0.097 | encorafenib -0.034 | [9] 0.01 | alisertib 0.008 | [7] 0.102 | gefitinib 0.085

TSPAN3 (UniProt O60637)
inactive: vemurafenib -0.075 | [1] -0.052 | [8] 0.01 | volasertib 0.073 | [2] -0.222 | [4] -0.3 | saracatinib -0.038 | alvocidib 0.193 | Tubastatin A -0.081 | [5] 0.027 | defactinib 0.096 | [6] 0.091 | encorafenib -0.015 | [9] 0.026 | alisertib -0.231 | [7] 0.042 | gefitinib 0.049
active: [3] 0.663

TRIM24 (UniProt O15164)
inactive: vemurafenib -0.008 | [1] 0.017 | barasertib 0.015 | [8] -0.047 | volasertib 0.012 | [2] 0.016 | [3] 0.124 | [4] -0.056 | saracatinib 0.05 | sotrastaurin 0.044 | alvocidib -0.008 | Tubastatin A -0.072 | [5] 0.109 | defactinib 0.021 | [6] -0.143 | encorafenib 0.059 | [9] 0.056 | alisertib -0.02 | [7] 0.019 | gefitinib -0.018

TRMO (UniProt Q9BU70)
inactive: vemurafenib -0.086 | barasertib 0.204 | [8] 0.064 | saracatinib -0.184 | sotrastaurin 0.033 | defactinib 0.011 | [6] -0.114 | encorafenib 0.058 | [9] -0.056

TSEN15, A0A2U3TZM3
inactive: vemurafenib -0.007 | [1] -0.004 | volasertib 0.165 | [2] -0.29 | [3] 0.116 | [4] 0.506 | saracatinib 0.301 | alvocidib -0.115 | Tubastatin A 0.174 | defactinib 0.134 | [6] -0.16 | alisertib -0.282 | [7] -0.156 | gefitinib 0.044

TRIM58 (UniProt Q8NG06)
inactive: vemurafenib 0.078 | barasertib 0.066 | [8] -0.058 | [2] -0.033 | [3] 0.001 | [4] -0.061 | saracatinib -0.002 | sotrastaurin 0.005 | alvocidib 0.051 | Tubastatin A -0.003 | [5] 0.14 | defactinib -0.025 | [6] 0.021 | encorafenib 0.032 | [9] 0.101 | alisertib -0.039 | gefitinib 0.027

TRIM28 (UniProt Q13263)
inactive: vemurafenib -0.01 | [1] 0.002 | barasertib -0.009 | [8] -0.001 | volasertib 0.007 | [2] -0.006 | [3] -0.008 | [4] 0.013 | saracatinib 0 | sotrastaurin -0.033 | alvocidib 0.024 | Tubastatin A 0.016 | [5] 0 | defactinib -0.007 | [6] -0.002 | encorafenib -0.011 | [9] 0.009 | alisertib 0 | [7] 0.006 | gefitinib -0.01

TRDMT1 (UniProt O14717)
inactive: vemurafenib 0.175 | [1] 0.093 | [8] -0.164 | volasertib -0.06 | [2] 0.134 | saracatinib -0.073 | sotrastaurin -0.038 | Tubastatin A 0.071 | [5] -0.06 | defactinib 0.009 | [6] -0.047 | encorafenib 0.181 | [9] -0.168 | alisertib 0.081 | [7] 0.128 | gefitinib -0.041

TRMT1 (UniProt Q9NXH9)
inactive: vemurafenib -0.026 | [1] 0 | barasertib 0.012 | [8] 0.014 | volasertib 0.008 | [2] 0.007 | [3] 0.004 | [4] 0.046 | saracatinib 0.013 | sotrastaurin -0.006 | alvocidib -0.006 | Tubastatin A 0.001 | [5] 0.012 | defactinib 0.012 | [6] -0.033 | encorafenib 0.019 | [9] -0.05 | alisertib 0.022 | [7] -0.007 | gefitinib 0.019

TSR3 (UniProt Q9UJK0)
inactive: vemurafenib -0.004 | [1] 0.031 | barasertib 0.01 | [8] 0.074 | volasertib -0.015 | [2] -0.021 | [3] -0.012 | [4] 0.011 | saracatinib 0.086 | sotrastaurin -0.044 | alvocidib -0.016 | Tubastatin A 0.042 | [5] 0.013 | defactinib 0.006 | [6] 0.103 | encorafenib 0.005 | [9] -0.186 | alisertib -0.005 | [7] 0.01 | gefitinib -0.046

Random excerpt: two entries already listed
TSR3 (UniProt Q9UJK0)
inactive: vemurafenib -0.004 | [1] 0.031 | barasertib 0.01 | [8] 0.074 | volasertib -0.015 | [2] -0.021 | [3] -0.012 | [4] 0.011 | saracatinib 0.086 | sotrastaurin -0.044 | alvocidib -0.016 | Tubastatin A 0.042 | [5] 0.013 | defactinib 0.006 | [6] 0.103 | encorafenib 0.005 | [9] -0.186 | alisertib -0.005 | [7] 0.01 | gefitinib -0.046

TRMT1 (UniProt Q9NXH9)
inactive: vemurafenib -0.026 | [1] 0 | barasertib 0.012 | [8] 0.014 | volasertib 0.008 | [2] 0.007 | [3] 0.004 | [4] 0.046 | saracatinib 0.013 | sotrastaurin -0.006 | alvocidib -0.006 | Tubastatin A 0.001 | [5] 0.012 | defactinib 0.012 | [6] -0.033 | encorafenib 0.019 | [9] -0.05 | alisertib 0.022 | [7] -0.007 | gefitinib 0.019

(cont.)

TTC28 (UniProt Q96AY4)
inactive: vemurafenib -0.148 | barasertib 0.181 | sotrastaurin -0.031 | [5] 0.045 | defactinib 0.132 | alisertib 0.058 | gefitinib 0.215
